Results are given in words; binding and its absence hold for the method and conditions named. In cells and extracts the contact can be indirect.
Molecular target: Tripartite motif containing 21 (TRIM21) (human) (UniProt P19474)
Experiment: co-IP; cell lysate in Pierce IP Lysis Buffer; anti-TRIM21, anti-TCF3 or rabbit control IgG overnight at 4 °C, Protein A/G-Agarose, washing, elution with loading buffer, Western blot

Amino acid sequences for entries named in this document (tags omitted).
UniProt P19474: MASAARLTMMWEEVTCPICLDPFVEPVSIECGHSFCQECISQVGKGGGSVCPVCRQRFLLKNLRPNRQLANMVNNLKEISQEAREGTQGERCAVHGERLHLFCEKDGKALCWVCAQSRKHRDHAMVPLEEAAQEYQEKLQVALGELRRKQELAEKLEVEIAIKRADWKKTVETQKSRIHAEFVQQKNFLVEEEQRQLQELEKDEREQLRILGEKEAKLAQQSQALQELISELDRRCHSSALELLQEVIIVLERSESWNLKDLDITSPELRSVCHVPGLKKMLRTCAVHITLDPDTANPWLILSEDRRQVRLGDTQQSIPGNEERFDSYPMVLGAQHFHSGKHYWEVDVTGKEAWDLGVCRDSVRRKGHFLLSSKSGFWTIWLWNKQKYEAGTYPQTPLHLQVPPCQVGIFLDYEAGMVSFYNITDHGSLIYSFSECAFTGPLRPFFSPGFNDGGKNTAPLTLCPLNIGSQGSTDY
UniProt P15923: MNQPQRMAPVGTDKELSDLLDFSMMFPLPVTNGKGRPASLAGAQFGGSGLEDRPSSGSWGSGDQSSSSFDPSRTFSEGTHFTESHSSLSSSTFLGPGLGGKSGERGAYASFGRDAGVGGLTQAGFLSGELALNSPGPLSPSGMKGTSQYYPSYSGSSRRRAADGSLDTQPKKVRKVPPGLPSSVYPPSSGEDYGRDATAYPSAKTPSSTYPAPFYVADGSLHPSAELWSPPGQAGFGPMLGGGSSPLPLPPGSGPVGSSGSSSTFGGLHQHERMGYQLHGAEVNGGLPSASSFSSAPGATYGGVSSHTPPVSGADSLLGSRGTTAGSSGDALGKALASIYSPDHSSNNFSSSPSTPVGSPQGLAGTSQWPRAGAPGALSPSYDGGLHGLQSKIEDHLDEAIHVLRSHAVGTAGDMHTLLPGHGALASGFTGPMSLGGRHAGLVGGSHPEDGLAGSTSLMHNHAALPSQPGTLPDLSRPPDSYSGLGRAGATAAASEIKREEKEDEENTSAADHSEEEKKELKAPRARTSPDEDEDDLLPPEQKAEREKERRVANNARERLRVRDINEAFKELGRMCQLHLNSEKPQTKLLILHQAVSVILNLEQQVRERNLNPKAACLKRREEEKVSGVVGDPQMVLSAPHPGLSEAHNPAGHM

- binding: no binding
Substance: Transcription Factor 3 (TCF3) (from UniProt P15923 1-654)

— article PMC12462522
